Data as given in PubChem BioAssay AID652180 (National Center for Advancing Translational Sciences (NCATS), 2013).
The inconclusive results got no clear call from the source; some entries with a clear call stand among them for comparison. Potencies of inconclusive entries are doubtful fits and often do not repeat. Activity calls are given as the source filed them. The call rests on the fitted dose curve; in most records, active means well fitted inhibition curve with a large enough effect; inconclusive means small, poorly fitted or top-dose-only effect; inactive means no such curve, though single readings can be large or run the other way.

test: qHTS Assay for Lipid Storage Modulators: 3T3L1 Assay against Probe and Analogs; conditions: 3T3-L1 lipid droplets, BODIPY imaging, oleic acid, 18-24 h; series mostly up to 46.1 µM
From the text: Storing lipids as a reservoir for energy or the anabolism of elementary metabolites is a common feature of probably all cells and is conserved from bacteria to humans. The universal cellular lipid storage organelle is the so-called lipid storage droplet (LD). Although ubiquitous, LDs share a simple structure composed of a hydrophobic core that harbors the storage lipids, which is shielded by a droplet-specific phospholipid monolayer to which proteins are attached. The current model of LD biogenesis involves an incorporation of the lipid core into the membrane leaflets of the endoplasmic reticulum (ER) followed by a subsequent budding-like maturation of a LD, which ultimately pinches off. Once released, LD volume can increase by localized lipogenesis or fusion of existing droplets. Storage lipids are re-mobilized enzymatically by lipase activity. Lipase regulation in the adipocyte is heavily studied and involves multiple components including catecholamine signaling, the LD-associated proteins Perilipin and comparative gene identification-58 (CGI-58) and at least two lipases named hormone sensitive lipase (HSL) and adipocyte triglyceride lipase (ATGL). LD regulation outside of the adipocyte is poorly understood and only few components are known. However, there is an urgent need to learn more about ectopic fat depots as mislocalized storage of lipids, for example in the liver or muscle, is an eminent health problem associated with insulin resistance or the metabolic syndrome. We developed a laser-scanning cytometer assay to enable 1,536-well screening and combined the results of the small molecules screen with an RNAi database based on lipid storage. In this assay we tested analogs of the probe against a mammalian cell line (3T3L1), to see if these small molecules could disrupt lipid storage. NIH Molecular Libraries Probe Production Centers Network [MLPCN] NIH Chemical Genomics Center [NCGC] MLPCN Grant: MH085686 Assay Submitter (PI): Mathias Beller, Max-Planck-Institut fur Biophysikalische Chemie
3T3L1 cells were obtained from ATCC (CL-173). 4 uL of cells at 1.25 X 105 cell/mL were dispensed into 1536 well Poly-D-Lysine coated black with clear bottom imaging plates (Corning, #7356) to obtain 500 cells/well, and cultured at 37 °C, 95% humidity, and 5% CO2 overnight. The culture medium used was OPTI-MEM containing 5% fetal bovine serum (FBS). Triacsin C (Sigma-Aldrich T-4540), an inhibitor of long-chain fatty acyl CoA synthetase that blocks synthesis of triglycerides, was used as a positive control for lipid under-storage. A total of 23 nL of compounds dissolved in DMSO at different concentrations were transferred to the assay plates using a Kalypsys 1536-pin tool, the final DMSO concentration was 0.46%. One microliter of oleic acid at 400 uM (Calbiochem, #4954) was added to induce lipid droplet formation in the cells, and the plates were lidded. After 18-24 hours of incubation at 37 °C, 95% humidity, and 5% CO2, cells were fixed (8 % paraformaldehyde in PBS, 30 min, room temperature), washed three times with PBS, then stained for lipid droplet and nucleus using 4uL of PBS solution containing BODIPY lipid dye 493/503 (1:2000 dilution, Life Technologies, #3922) and Hoechst 33342 (1:1000, Life Technologies, #H3570) with Washer dispenser EL406(Biotek). Images were acquired using InCell 2000 (GE). Number of cells, number of lipids and sizes of lipids were analysis using GE Investigator software.

SMILES | Potency
CCOc1ccc(CCNC(=O)C2=C(C)OCCO2)cc1OCC | inactive
CCNC(=O)C1CCN(C(=O)C(C)(C)NC(=O)Nc2ccccc2Cl)CC1 | inconclusive: 1180 nM [inhibitor, partial curve, poor fit]
CCOc1ccc(CCNC(=O)C2COc3ccccc3O2)cc1OCC (stereo not given) | inconclusive: 1480 nM [inhibitor, full curve, poor fit]
COc1cc(Nc2ncc(F)c(Nc3ccc4c(n3)NC(=O)C(C)(C)O4)n2)cc(OC)c1OC | inconclusive: 2960 nM [inhibitor, full curve, poor fit]
CCOc1ccc(CCNC(=O)c2cc3ccccc3n2C)cc1OCC | inconclusive: 469 nM [inhibitor, full curve]
CCOc1ccc(CCNC(=O)c2cc3sccc3[nH]2)cc1OCC | active: 4690 nM
O=C(NC1CCCc2c1cnn2-c1ccc(F)cc1F)c1cnon1 (stereo not given) | inactive
CCOc1ccc(CCNC(=O)c2cc3sccc3n2Cc2ccccn2)cc1OCC | active: 23.5 nM
CCOc1ccc(C(C)CNC(=O)c2cc3sccc3n2Cc2ccccc2)cc1OCC (stereo not given) | inconclusive: 1180 nM [inhibitor, full curve, poor fit]
CCOc1ccc(CCNC(=O)Cc2ccccc2)cc1OCC | inconclusive: 469 nM [inhibitor, full curve, poor fit]
O=C(NC1CCCc2c1cnn2-c1cccc(O)c1)c1ccccn1 (stereo not given) | inactive
CCOc1ccc(CCNC(=O)c2cc3sccc3n2Cc2ccc(-n3cncn3)cc2)cc1OCC | inconclusive: 83.3 nM [inhibitor, full curve]
O=C(Nc1cccc2c1cnn2-c1ccc(F)cc1)c1ccccn1 | inactive
CCOC(=O)C1CCN(C(=O)CNC(=O)Nc2ccccc2Cl)CC1 | inconclusive: 4690 nM [inhibitor, partial curve, poor fit]
O=C(Nc1ccccc1-c1cn2c(CN3CCNCC3)csc2n1)c1cnc2ccccc2n1 | inconclusive: 4180 nM [inhibitor, partial curve, poor fit]
CCOc1ccc(CCNC(=O)c2cc3ccccc3n2Cc2ccc(Cl)c(F)c2)cc1OCC | active: 18.7 nM
CC(C)Oc1ccc(CCNC(=O)c2cc3sccc3n2Cc2ccccc2)cc1OC(C)C | inconclusive: 18.7 nM [inhibitor, full curve, poor fit]
O=C(O)CCc1ccc(NCc2cccc(Oc3ccccc3)c2)cc1 | inactive
CCOC(=O)C1CCN(C(=O)C(C)(C)NC(=O)Nc2ccc3ccccc3c2)CC1 | inconclusive: 935 nM [inhibitor, full curve, poor fit]
CCOC(=O)C1CCN(C(=O)C(C)(C)NC(=O)Nc2ccc(F)c(F)c2)CC1 | inactive

SMILES | Potency
CCOC(=O)C1CCN(C(=O)C(C)(C)NC(=O)Nc2ccc(Cl)cc2Cl)CC1 | inconclusive: 5900 nM [inhibitor, full curve]
CCn1c(C(=O)NCc2ccc(OC)c(OC)c2)cc2sccc21 | inconclusive: 6620 nM [inhibitor, full curve, poor fit]
O=C(NCCc1ccc2c(c1)OCO2)c1cc2sccc2n1Cc1ccccc1 | inactive
CCOc1ccc(CCNC(=O)c2cc3sccc3n2Cc2ccc(Cl)c(F)c2)cc1OCC | inconclusive: 7.4 nM [inhibitor, full curve, poor fit]
CCOc1ccc(CCNC(=O)c2ccc(C3(C(F)(F)F)N=N3)cc2)cc1OCC | inconclusive: 187 nM [inhibitor, full curve, poor fit]
O=C(NC1CCCc2c1cnn2CCO)c1ccccn1 (stereo not given) | inconclusive: 26400 nM [inhibitor, single point]
O=C(NC1CCCc2c1cnn2-c1ccc(F)cc1F)C1CC1 (stereo not given) | inconclusive: 5.3 nM [inhibitor, full curve, poor fit]
CCOc1ccc(CCNC(=O)c2csc(Br)n2)cc1OCC | inconclusive: 4.1 nM [inhibitor, full curve, poor fit]
CC(C)(C)OC(=O)NCCOCCOCCOc1ccc(-n2ncc3c2CCCC3NC(=O)c2ccccn2)cc1 (stereo not given) | inactive
O=C(NC1CCCc2c1cnn2-c1ccc(F)cc1F)c1ccccc1 (stereo not given) | inactive
CCOC(=O)C1CCN(C(=O)C(C)(C)NC(=O)Nc2ccc(C#N)cc2)CC1 | inconclusive: 37200 nM [inhibitor, partial curve, poor fit]
O=C(Cc1ccccc1)NC1CCCc2c1cnn2-c1ccc(F)cc1F (stereo not given) | inactive
CCOc1ccc(CCN(C)C(=O)c2cc3sccc3n2Cc2ccccc2)cc1OCC | inconclusive: 372 nM [inhibitor, full curve]
CCOC(=O)C1CCN(C(=O)C(C)(C)NC(=O)Nc2ccc3c(c2)CCC3)CC1 | inactive
COc1ccc(-n2ncc3c2CCCC3NC(=O)c2ccccn2)cc1 (stereo not given) | inactive
CCOC(=O)C1CCN(C(=O)C2(NC(=O)Nc3ccccc3Cl)CCC2)CC1 | inconclusive: 4690 nM [inhibitor, full curve, poor fit]
CCOc1ccc(CCNC(=O)c2cc3c(s2)CCC3)cc1OCC | inconclusive: 662 nM [inhibitor, full curve]
CCOc1ccc(CCNC(=O)c2cc3sccc3n2C)cc1OCC | inactive
O=C(NC1CCCc2c1cnn2-c1ccc(F)cc1F)c1cccs1 (stereo not given) | inactive
CC(NCc1ccc2c(c1)nc(NC(=O)c1ccc(-c3cn[nH]c3)s1)n2CC(C)(C)O)C(C)(C)C (stereo not given) | inconclusive: 3720 nM [inhibitor, partial curve, poor fit]

Entries above that have an aryl methoxy group, in the order listed:
SMILES | Potency
COc1cc(Nc2ncc(F)c(Nc3ccc4c(n3)NC(=O)C(C)(C)O4)n2)cc(OC)c1OC | inconclusive: 2960 nM [inhibitor, full curve, poor fit]
CCn1c(C(=O)NCc2ccc(OC)c(OC)c2)cc2sccc21 | inconclusive: 6620 nM [inhibitor, full curve, poor fit]
COc1ccc(-n2ncc3c2CCCC3NC(=O)c2ccccn2)cc1 (stereo not given) | inactive
